These are yes or no findings as the source states them, for the method shown. Some entries that bind do so weakly or less than the wild type.
Key:
Test in all cases: peptide or protein array; only the binder purified
[1] = biological target: T1, KIAA0681 protein (human) (UniProt Q9Y468)
T1 sequence: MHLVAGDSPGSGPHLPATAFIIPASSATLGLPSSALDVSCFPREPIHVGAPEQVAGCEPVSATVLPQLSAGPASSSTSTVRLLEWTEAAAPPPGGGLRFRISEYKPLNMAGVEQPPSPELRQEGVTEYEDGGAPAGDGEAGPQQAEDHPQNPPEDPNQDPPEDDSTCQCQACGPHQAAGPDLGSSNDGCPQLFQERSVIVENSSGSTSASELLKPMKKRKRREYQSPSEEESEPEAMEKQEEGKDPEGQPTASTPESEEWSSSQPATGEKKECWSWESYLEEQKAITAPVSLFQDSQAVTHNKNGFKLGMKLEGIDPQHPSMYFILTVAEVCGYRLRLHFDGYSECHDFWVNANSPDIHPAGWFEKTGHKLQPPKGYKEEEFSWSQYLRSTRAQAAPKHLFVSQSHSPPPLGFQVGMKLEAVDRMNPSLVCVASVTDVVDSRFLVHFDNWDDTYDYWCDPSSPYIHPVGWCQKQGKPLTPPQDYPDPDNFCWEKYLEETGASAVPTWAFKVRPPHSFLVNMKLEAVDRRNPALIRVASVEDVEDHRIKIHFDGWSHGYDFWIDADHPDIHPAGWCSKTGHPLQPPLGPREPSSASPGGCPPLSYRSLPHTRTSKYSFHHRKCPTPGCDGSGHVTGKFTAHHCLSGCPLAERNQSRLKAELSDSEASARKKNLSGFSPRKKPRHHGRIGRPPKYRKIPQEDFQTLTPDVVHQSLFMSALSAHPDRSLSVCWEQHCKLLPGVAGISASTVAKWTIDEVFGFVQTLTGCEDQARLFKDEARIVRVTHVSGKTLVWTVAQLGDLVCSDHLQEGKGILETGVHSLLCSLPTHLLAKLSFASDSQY

The chains behind the UniProt entries cited, without tags or fusion partners. Residues count along the entry.
UniProt Q96JK2: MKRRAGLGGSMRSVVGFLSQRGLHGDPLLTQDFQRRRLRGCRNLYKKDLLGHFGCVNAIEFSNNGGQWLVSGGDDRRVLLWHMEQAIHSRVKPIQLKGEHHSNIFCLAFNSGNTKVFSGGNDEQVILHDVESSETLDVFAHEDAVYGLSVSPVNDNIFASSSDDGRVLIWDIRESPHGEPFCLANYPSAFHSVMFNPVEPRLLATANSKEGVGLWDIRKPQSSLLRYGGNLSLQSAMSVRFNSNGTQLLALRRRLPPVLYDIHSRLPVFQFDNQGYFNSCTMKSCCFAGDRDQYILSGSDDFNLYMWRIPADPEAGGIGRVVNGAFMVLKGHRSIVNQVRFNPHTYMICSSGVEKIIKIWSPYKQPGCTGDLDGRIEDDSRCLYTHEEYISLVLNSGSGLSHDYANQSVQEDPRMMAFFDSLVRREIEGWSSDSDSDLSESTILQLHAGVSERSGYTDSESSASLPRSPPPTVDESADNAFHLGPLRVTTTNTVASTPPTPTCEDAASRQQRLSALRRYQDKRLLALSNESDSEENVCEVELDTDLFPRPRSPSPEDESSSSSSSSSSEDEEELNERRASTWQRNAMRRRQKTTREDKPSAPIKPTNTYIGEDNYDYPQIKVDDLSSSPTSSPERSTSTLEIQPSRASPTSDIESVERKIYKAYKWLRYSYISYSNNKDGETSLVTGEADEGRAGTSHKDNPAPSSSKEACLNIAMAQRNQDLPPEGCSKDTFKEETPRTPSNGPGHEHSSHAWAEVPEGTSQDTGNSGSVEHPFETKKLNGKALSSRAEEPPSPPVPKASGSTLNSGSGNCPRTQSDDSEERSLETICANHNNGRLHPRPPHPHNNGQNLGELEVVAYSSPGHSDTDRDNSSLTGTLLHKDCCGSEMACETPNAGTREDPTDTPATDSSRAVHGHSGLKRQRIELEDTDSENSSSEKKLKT
UniProt Q14980: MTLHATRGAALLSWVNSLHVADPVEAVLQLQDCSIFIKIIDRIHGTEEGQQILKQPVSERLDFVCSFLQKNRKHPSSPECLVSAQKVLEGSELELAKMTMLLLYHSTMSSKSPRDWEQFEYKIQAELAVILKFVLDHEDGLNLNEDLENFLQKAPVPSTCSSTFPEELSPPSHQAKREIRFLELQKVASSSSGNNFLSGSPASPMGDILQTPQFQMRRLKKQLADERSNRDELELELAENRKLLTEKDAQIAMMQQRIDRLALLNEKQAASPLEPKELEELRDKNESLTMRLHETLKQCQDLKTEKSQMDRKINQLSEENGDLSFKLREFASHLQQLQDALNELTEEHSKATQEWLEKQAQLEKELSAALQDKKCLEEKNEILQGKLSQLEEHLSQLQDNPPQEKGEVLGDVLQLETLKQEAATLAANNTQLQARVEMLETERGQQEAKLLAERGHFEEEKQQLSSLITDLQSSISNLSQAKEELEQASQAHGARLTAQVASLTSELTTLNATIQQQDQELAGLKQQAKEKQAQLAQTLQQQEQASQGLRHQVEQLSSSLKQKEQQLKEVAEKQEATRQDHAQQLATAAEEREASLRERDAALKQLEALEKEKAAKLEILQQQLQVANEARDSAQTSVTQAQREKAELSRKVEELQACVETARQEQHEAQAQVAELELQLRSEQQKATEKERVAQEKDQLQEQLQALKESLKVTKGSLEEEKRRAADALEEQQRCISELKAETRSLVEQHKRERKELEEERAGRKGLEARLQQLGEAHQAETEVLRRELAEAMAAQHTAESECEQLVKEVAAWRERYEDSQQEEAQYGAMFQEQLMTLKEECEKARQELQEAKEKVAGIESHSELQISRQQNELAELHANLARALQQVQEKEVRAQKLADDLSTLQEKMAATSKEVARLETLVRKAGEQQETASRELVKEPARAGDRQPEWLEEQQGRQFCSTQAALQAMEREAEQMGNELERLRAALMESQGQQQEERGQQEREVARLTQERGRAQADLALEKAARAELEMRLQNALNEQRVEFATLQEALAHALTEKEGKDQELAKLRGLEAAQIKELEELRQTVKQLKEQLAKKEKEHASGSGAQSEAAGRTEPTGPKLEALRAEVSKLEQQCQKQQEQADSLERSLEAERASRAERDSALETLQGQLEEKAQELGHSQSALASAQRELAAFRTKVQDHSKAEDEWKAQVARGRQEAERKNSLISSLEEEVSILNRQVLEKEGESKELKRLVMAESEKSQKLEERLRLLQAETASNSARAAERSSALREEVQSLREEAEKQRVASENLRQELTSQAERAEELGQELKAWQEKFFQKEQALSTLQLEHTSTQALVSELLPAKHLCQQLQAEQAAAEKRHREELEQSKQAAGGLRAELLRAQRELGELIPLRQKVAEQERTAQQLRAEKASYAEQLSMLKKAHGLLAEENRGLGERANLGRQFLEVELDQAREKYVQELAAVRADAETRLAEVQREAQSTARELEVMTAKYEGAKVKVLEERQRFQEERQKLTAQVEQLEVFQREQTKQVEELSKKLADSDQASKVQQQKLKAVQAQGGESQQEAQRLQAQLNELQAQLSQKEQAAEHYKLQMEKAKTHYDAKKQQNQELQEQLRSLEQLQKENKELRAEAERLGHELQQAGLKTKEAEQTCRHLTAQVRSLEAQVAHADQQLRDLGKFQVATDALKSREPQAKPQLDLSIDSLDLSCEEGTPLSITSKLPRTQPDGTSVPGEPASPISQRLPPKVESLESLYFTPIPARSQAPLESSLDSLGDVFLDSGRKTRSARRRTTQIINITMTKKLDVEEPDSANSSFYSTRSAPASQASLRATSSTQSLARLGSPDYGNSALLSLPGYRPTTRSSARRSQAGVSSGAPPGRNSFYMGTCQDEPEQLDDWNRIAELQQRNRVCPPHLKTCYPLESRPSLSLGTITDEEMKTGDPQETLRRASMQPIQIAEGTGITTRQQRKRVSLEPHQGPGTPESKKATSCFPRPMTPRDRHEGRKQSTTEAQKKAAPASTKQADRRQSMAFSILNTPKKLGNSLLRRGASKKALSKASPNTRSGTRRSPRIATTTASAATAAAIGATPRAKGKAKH
UniProt O60331: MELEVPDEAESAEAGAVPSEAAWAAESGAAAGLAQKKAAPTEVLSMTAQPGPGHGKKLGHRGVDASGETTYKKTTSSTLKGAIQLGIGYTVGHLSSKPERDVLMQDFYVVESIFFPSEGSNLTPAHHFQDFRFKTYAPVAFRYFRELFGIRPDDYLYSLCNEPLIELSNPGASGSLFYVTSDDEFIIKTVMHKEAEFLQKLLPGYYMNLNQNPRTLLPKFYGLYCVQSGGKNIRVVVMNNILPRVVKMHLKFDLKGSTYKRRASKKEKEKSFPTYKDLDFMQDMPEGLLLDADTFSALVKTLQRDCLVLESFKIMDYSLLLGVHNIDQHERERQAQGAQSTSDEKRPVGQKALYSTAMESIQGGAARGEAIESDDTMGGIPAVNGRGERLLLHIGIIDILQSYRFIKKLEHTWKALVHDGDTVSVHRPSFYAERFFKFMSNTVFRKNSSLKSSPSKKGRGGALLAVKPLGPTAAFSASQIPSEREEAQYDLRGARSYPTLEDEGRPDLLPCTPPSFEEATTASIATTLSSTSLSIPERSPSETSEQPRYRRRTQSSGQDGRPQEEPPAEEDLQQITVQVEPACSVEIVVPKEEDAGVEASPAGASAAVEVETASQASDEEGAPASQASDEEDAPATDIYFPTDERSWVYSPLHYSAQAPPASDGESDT
UniProt O15379: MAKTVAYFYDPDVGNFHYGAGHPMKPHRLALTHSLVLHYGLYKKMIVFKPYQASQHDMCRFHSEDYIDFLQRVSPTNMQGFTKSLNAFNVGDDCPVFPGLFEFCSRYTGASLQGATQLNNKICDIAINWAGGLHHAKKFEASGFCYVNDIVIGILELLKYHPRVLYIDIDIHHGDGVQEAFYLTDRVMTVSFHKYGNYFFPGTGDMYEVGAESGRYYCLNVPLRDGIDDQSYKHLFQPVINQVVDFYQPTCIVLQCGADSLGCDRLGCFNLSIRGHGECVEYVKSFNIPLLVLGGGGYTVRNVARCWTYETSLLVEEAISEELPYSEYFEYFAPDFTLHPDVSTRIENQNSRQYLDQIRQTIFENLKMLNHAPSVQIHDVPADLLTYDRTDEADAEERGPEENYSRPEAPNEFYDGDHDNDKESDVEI
UniProt Q96JG8, residues 1-739: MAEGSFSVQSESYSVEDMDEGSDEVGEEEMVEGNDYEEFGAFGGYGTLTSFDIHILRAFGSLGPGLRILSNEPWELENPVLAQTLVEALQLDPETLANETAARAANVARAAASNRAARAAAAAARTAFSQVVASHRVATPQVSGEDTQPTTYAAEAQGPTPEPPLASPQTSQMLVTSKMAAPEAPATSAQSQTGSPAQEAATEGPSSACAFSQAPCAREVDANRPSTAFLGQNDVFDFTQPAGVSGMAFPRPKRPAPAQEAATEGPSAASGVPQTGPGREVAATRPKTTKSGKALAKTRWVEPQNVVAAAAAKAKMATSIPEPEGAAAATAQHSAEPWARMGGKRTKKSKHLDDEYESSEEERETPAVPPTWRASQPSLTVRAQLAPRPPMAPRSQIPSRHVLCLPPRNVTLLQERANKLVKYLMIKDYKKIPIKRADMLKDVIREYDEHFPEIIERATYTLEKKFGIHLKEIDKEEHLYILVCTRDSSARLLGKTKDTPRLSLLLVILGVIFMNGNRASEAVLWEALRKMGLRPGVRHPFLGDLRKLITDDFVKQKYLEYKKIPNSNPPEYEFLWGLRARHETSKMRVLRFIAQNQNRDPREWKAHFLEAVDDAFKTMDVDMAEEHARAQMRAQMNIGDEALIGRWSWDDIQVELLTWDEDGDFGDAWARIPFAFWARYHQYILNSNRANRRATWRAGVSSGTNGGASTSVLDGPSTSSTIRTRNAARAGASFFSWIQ
UniProt Q9NYF8: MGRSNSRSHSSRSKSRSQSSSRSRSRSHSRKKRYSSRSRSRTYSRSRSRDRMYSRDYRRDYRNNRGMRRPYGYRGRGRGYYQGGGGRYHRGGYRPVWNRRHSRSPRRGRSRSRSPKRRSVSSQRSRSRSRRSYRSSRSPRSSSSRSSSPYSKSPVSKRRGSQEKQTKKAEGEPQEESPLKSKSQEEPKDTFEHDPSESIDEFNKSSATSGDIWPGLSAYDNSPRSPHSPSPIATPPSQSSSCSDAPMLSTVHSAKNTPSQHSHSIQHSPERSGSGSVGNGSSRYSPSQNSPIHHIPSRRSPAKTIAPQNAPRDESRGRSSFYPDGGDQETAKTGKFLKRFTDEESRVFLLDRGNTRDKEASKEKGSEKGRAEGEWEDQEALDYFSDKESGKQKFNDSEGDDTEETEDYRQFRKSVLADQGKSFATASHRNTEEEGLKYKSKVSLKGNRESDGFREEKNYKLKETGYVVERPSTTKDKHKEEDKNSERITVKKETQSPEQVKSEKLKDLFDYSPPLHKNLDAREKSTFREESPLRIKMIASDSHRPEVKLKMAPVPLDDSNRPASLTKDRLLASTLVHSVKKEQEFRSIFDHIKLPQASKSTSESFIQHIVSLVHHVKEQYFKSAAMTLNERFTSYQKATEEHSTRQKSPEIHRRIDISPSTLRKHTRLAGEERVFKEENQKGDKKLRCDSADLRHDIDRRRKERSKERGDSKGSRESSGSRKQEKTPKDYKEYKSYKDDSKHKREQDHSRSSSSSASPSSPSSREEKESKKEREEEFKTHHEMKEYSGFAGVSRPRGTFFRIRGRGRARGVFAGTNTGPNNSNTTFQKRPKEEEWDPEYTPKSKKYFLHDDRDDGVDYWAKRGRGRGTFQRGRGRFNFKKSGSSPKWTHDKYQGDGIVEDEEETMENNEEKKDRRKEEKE
UniProt P13202: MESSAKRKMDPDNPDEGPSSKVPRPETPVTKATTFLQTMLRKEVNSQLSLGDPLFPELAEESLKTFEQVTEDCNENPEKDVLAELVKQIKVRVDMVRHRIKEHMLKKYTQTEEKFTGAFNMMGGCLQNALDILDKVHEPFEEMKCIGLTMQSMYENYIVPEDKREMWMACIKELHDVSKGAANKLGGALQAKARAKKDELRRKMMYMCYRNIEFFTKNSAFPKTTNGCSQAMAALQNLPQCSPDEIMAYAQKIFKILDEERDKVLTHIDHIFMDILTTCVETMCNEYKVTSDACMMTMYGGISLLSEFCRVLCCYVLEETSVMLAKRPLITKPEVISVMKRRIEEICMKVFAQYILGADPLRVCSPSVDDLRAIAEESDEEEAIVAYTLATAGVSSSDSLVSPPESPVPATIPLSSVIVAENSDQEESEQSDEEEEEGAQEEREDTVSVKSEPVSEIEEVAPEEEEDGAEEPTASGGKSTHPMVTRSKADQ

[2] = biological target: ZXD family zinc finger C (ZXDC) (human) (UniProt Q2QGD7)
[3] = biological target: WD repeat domain 22 (WDR22) (human) (UniProt Q96JK2)
[4] = biological target: Gamma enolase (EC 4.2.1.11) (human) (UniProt P09104)
[5] = biological target: NuMA protein (human) (UniProt Q14980)
[6] = biological target: Phosphatidylinositol-4-phosphate 5-kinase, type I, gamma (PIP5K1C) (human) (UniProt O60331)
[7] = biological target: HDAC3 (human) (UniProt O15379)
[8] = biological target: Kinase non-catalytic C-lobe domain (KIND) containing 1 (KNDC1) (human) (UniProt Q76NI1)
[9] = biological target: T2, GTPase activating protein binding protein 2 (human) (UniProt Q9UN86)
T2 sequence: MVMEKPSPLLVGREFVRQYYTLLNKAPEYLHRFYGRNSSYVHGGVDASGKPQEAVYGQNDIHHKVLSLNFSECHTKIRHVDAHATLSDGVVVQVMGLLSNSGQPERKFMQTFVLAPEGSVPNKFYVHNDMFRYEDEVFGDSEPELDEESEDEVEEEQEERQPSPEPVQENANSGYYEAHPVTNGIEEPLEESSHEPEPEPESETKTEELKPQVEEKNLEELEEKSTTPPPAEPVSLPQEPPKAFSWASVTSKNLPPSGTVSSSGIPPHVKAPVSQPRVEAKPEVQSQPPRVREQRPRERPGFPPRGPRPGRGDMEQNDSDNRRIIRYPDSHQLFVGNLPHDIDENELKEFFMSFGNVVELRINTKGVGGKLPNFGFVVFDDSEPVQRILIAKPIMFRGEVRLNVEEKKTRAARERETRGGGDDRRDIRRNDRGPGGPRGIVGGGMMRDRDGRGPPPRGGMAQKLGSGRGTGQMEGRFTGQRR

[10] = biological target: Melanoma antigen family D 4 (MAGED4) (human) (UniProt Q96JG8)
[11] = biological target: BCL2-associated transcription factor 1 (human) (UniProt Q9NYF8)
[12] = biological target: T3, PR domain containing 8 (PRDM8) (human) (UniProt Q9NQV8)
T3 sequence: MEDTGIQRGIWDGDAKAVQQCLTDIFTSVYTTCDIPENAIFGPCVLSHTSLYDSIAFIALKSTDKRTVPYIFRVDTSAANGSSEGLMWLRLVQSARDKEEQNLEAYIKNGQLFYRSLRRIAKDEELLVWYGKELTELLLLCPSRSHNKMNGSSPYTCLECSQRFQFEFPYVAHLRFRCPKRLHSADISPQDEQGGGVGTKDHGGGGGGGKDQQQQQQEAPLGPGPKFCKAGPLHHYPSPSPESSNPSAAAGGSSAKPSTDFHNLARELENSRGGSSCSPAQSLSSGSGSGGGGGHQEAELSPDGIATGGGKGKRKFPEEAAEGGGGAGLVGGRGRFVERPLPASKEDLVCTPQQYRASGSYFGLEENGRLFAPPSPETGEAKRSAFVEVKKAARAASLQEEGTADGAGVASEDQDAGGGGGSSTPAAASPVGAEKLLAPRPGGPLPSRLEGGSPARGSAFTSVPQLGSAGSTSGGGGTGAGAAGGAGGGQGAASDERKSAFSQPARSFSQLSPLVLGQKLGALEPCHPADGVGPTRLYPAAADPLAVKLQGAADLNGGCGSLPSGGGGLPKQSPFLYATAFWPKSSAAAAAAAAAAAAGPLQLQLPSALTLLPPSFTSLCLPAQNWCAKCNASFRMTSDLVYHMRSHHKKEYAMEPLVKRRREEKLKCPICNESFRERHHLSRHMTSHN

[13] = biological target: Nuclear receptor co-repressor 2 (NCOR2) (human) (UniProt Q9Y618)

## Human cytomegalovirus immediate-early protein 1 (from UniProt P13202 1-491)
[1]
  binding: binds
[2]
  binding: binds
[3]
  binding: binds
[4]
  binding: binds
[5]
  binding: binds
[6]
  binding: binds
[7]
  binding: no binding
[8]
  binding: binds
[9]
  binding: binds
[10]
  binding: binds
[11]
  binding: binds
[12]
  binding: binds
[13]
  binding: binds

From paper PMC3917433
